No constants are given. Whether binding was seen depends on the method and setting. Binding seen in cells or lysates may run through a third protein. Here binding means that the protein was enriched with, or labelled near, the bait; the list need not be complete. Tags and fused reporters may be left off the sequences shown.

Amino acid sequences for entries named in this document (tags omitted). Residues count along the entry.
UniProt P40939, residues 37-763: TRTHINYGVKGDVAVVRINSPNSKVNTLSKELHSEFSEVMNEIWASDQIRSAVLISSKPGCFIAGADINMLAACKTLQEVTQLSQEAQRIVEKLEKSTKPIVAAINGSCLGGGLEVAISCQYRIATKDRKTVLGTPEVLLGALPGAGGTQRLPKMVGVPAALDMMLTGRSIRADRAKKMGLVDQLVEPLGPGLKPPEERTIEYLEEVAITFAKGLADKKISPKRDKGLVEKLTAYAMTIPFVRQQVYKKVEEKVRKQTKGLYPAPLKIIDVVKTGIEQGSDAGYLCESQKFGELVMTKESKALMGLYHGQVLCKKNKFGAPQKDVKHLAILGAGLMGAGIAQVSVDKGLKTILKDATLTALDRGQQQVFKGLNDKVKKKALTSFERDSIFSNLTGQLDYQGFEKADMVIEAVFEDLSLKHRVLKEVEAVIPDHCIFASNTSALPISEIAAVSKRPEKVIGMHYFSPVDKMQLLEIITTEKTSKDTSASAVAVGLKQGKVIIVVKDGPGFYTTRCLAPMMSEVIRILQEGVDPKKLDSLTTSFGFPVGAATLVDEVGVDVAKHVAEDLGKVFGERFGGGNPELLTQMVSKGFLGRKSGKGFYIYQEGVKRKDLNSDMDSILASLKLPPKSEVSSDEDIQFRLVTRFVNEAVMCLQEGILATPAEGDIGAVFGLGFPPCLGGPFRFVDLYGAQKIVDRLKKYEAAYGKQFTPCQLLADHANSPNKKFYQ

For the assay, the target named is T1, Human CALHM2 Myc-DDK-tagged (human) (UniProt Q9HA72).
T1 sequence: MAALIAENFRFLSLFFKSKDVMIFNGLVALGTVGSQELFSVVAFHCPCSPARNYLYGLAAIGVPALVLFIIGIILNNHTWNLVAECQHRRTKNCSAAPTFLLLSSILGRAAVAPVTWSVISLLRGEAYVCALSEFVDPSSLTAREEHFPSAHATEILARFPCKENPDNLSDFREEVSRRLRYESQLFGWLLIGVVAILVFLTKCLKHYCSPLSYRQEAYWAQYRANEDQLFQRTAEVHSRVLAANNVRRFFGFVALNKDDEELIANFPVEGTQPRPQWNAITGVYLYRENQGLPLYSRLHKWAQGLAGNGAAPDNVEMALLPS
Description: affinity purification with mass spectrometry; mitochondria from HEK 293T cells overexpressing CALHM2-Myc-DDK, solubilised with 1 mM N-dodecyl maltoside; anti-FLAG M2 affinity gel, elution with Myc-peptide, eluate analysed by LC-MS; another Myc-DDK-tagged protein (ATP synthase c-subunit) as negative control.

With HSP70 (human (endogenous in HEK 293T)), the binding entry is listed as “binds”.
“ECHA, alpha subunit of the mitochondrial trifunctional protein (mTFP) (from UniProt P40939 37-763)”: the binding entry is recorded as “binds”.
In the case of HSP90 (human (endogenous in HEK 293T)), the binding entry was “binds”.
